From paper PMC3084716
The exact form of at least one protein or probe is not confirmed. For some assays here: A negative result means that nothing was seen under these conditions. For some assays here: Where cells or extracts were used, other partners may take part.

Key:
[1] = molecular target: PTEN, native from cerebellum (mouse) (UniProt O08586); assay: pull-down, immunoblot; conditions: protein in an extract, label: 5'-biotin or 32P (assay dependent), folded or branched DNA
[2] = molecular target: PTEN, native from cerebellum (mouse) (UniProt O08586); assay: aptamer western blot; conditions: denatured; protein in an extract; label: 5'-biotin or 32P (assay dependent); folded or branched DNA
GST-Anp32e = assay: filter binding; conditions: Filter binding: 50 mM Tris (pH not given), 1 h, 40 µl, protein 0.5 mg/ml (Fig. 2E: GST-PTEN 25 µM), PBS washes; co-precipitation 1 h at room temperature, 1 µM aptamer; recombinant protein; protein details: GST; label: 5'-biotin or 32P (assay dependent); folded or branched DNA

| Sequence | binding result ([1]; depletes PTEN from cytoplasmic fraction) | binding result [2] | binding result ([1]; depletes PTEN from nuclear fraction) | binding result (GST-Anp32e) |
| --- | --- | --- | --- | --- |
| CGGAATTCCGAGCGTGGGCGTGAGCCCTAAACACAAGTCCGCAGGGGTGTGGTAATATTCGCAGTTGTGTGTACGCCCACGCTCGAG [PTENz14] | binds | binds |  |  |
| CGGAATTCCGAGCGTGGGCGTGGTCATACCGCGCCTATCGAACTCGCCACTCGCGTGCAGCTCTGTGTAGGTACGCCCACGCTCGAG [PTENz7] |  | binds | binds | no binding |
